In patent US20240115654A1, “INTRAVENOUS ADMINISTRATION OF ENGINEERED ANTIMICROBIAL AMPHIPHILIC PEPTIDES” (priority 2021, published 2024):
In brackets after ≈: the same amount, converted by molar mass. Entries after “also recorded” stand apart in the source; their conditions may differ. For some of these results: Not every detail of the peptide structures is certain; ends, links or a residue may be inferred. For some of these results: At least one compound was matched to its structure with a doubt left. Peptide text beside a SMILES is read from it.

Tests used:
[1] = system: Staphylococcus aureus isolates (n = 104); set-up: unit not given beside the values; details: Staphylococcus aureus (n = 104), all methicillin-resistant
Description: (§1) Comparator antibiotics were supplied by Micromyx, and stock solutions were prepared on the first day of testing using solvents recommended by CLSI (1). Stock solutions of all compounds were made at 40× the final testing concentration and stored at −80° C. prior to testing. Information regarding compound source, catalog and lot number, testing concentrations and drug diluent for the comparators and test agent are detailed below in Table 3.
(§2) The test organisms evaluated in this study consisted of clinical isolates from the Micromyx Repository and reference isolates from the American Type Culture Collection (ATCC; Manassas, VA). The clinical isolates were obtained from USA hospitals. Upon initial receipt at Micromyx, the organisms were sub-cultured onto an appropriate agar medium. Following incubation, colonies were harvested from these plates and cell suspensions prepared and frozen at −80° C. with a cryoprotectant. Prior to testing, the isolates were streaked from frozen vials onto Trypticase Soy Agar with 5% sheep blood (Becton Dickenson [BD]; Sparks, MD; Lot Nos. 7173618, 7166759, 7208688, 72144895, 7228505 and Remel Lenexa, KS Lot No. 212574). Plates were incubated at 35° C. overnight.
(§3) Mueller Hinton II broth (MHB II; BD; Lot Nos. 6258541 and 7143896) was used for MIC testing of aerobic organisms.
(§4) MIC values were determined using a broth microdilution procedure described by CLSI (1, 3). Automated liquid handlers (Multidrop 384, Labsystems, Helsinki, Finland; Biomek 2000 and Biomek FX, Beckman Coulter, Fullerton CA) were used to conduct serial dilutions and liquid transfers.
(§5) To prepare the drug mother plates, which would provide the serial drug dilutions for the replicate daughter plates, the wells of columns 2-12 of standard 96-well microdilution plates (Costar 3795) were filled with 150 μl of the designated diluent for each row of drug. The test articles and comparator compounds (300 μl at 40× the highest concentration to be tested) were dispensed into the appropriate wells in column 1. The Biomek 2000 was then used to make 2-fold serial dilutions in the mother plates from column 1 through column 11. The wells of Column 12 contained no drug and served as the organism growth control wells for the assay.
(§6) The daughter plates were loaded with 185 μL per well of MHB II using the Multidrop 384. The daughter plates were completed on the Biomek FX instrument which transferred 5 μL of drug solution from each well of a mother plate to the corresponding well of each daughter plate in a single step. […]
(§7) Plates were stacked 3-4 high, covered with a lid on the top plate, placed in plastic bags, and incubated at 35° C. for 16 to 20 hrs. […] The MIC was read and recorded as the lowest concentration of drug that inhibited visible growth of the organism. […]

[2] = system: Enterococcus faecalis ATCC 29212 (VSE; QC); details: E. faecalis ATCC 29212; established CLSI QC range; cited from earlier work
[3] = system: Pseudomonas aeruginosa ATCC 27853 (non-MDR; QC); details: P. aeruginosa ATCC 27853; established CLSI QC range; cited from earlier work
[4] = system: Escherichia coli ATCC 25922 (QC); details: E. coli ATCC 25922; established CLSI QC range; cited from earlier work
[5] = system: Staphylococcus aureus ATCC 29213 (MSSA; QC); details: S. aureus ATCC 29213; established CLSI QC range; cited from earlier work
[6] = system: Klebsiella pneumoniae isolates (n = 101); details: Klebsiella pneumoniae (n = 101)
Description: as §1, §2, §3
(§8) MIC values were determined using a broth microdilution procedure described by CLSI (1, 3). Automated liquid handlers (Multidrop 384, Labsystems, Helsinki, Finland; Biomek 2000 and Biomek FX, Beckman Coulter, Fullerton CA) were used to conduct serial dilutions and liquid transfers. […]
as §7

[7] = system: Pseudomonas aeruginosa isolates (n = 109); set-up: unit not given beside the values; details: Pseudomonas aeruginosa (n = 109)
Description: as §1, §2, §3, §4, §5, §6, §7

[8] = system: Enterobacter spp. isolates (Enterobacter aerogenes and E. cloacae, n = 102); set-up: unit not given beside the values; details: Enterobacter spp. (n = 102)
Description: as §1, §2, §3, §4, §5, §6, §7

[9] = system: Streptococcus pneumoniae ATCC 49619 (QC); details: S. pneumoniae ATCC 49619; established CLSI QC range; cited from earlier work
[10] = system: Acinetobacter spp. isolates (n = 104); set-up: MIC range: unit not given beside the values
Description: as §1
The test organisms evaluated in this study consisted of clinical isolates from the Micromyx Repository and reference isolates from the American Type Culture Collection (ATCC; Manassas, VA). The clinical isolates were obtained from USA hospitals. Upon initial receipt at Micromyx, the organisms were sub-cultured onto an appropriate agar medium. Following incubation, colonies were harvested from these plates and cell suspensions prepared and frozen at −80° C. with a cryoprotectant. […]
MIC values were determined using a broth microdilution procedure described by CLSI (1, 3). […]
as §7

[11] = system: S. aureus strain SH1000 biofilms; assay: In vitro biofilm disruption on stainless steel rods; format: cell-based, Staphylococcus aureus; details: S. aureus SH1000, 10×MIC, up to 24 hours, FIG. 15
From the text: FIG. 15 depicts the effect of administration of SEQ ID NO:1 and cefazolin on biofilm maintenance. […] SEQ ID NO:1 eliminated mature implant biofilms on a model strain of S. aureus, SH1000.

[12] = Precipitation during broth dilution testing (solubility control plate); format: physicochemical; details: at 16 and 8 μg/mL in MHB II
P. aeruginosa biofilm = assay: Disruption of mature biofilm, crystal violet absorbance at 550 nm; format: cell-based, Pseudomonas aeruginosa; details: mature 24 h P. aeruginosa biofilm, 1 hour contact, FIG. 13
P. aeruginosa = assay: Mouse P. aeruginosa infection (sepsis) model; format: in vivo, Swiss Webster mice; details: 3 or 4 mg/kg, 4 and 24 h post-treatment, FIG. 18
[13] = system: Escherichia coli isolates (n = 101); details: E. coli ESBL, n=48
Description: as §1, §2, §3, §8, §7

S. aureus biofilm = assay: Disruption of mature biofilm, crystal violet absorbance at 550 nm; format: cell-based, Staphylococcus aureus; details: mature 24 h S. aureus biofilm, 1 hour contact, FIG. 14

## CCC[C@@H]1C[C@@H](C(=O)N[C@@H]([C@H]2O[C@H](SC)[C@H](O)[C@@H](O)[C@H]2O)[C@H](C)Cl)N(C)C1 [Clindamycin]
[1]
  MIC range: 0.03->16

## C[C@H]1COc2c(N3CCN(C)CC3)c(F)cc3c(=O)c(C(=O)O)cn1c23 [Levofloxacin]
[2]
  MIC QC range (in parentheses under the MIC): (0.25-2) μg/mL
[3]
  MIC QC range (in parentheses under the MIC): (0.5-4) μg/mL
[4]
  MIC QC range (in parentheses under the MIC): (0.008-0.06) μg/mL
[5]
  MIC QC range (in parentheses under the MIC): (0.06-0.5)^2 μg/mL
[6]
  MIC range: 0.03->8
[7]
  MIC range: 0.015->8
[1]
  MIC range: 0.12->8
[8]
  MIC range: 0.015->8
[9]
  MIC QC range (in parentheses under the MIC): (0.5-2) μg/mL
[10]; Acinetobacter spp. (n = 104)
  MIC range: 0.03->8

## CC(C)[C@H](NC(=O)[C@H](Cc1c[nH]c2ccccc12)NC(=O)[C@H](CCCNC(=N)N)NC(=O)[C@H](CCCNC(=N)N)NC(=O)[C@@H](NC(=O)[C@@H](NC(=O)[C@H](CCCNC(=N)N)NC(=O)[C@@H](NC(=O)[C@@H](NC(=O)[C@H](CCCNC(=N)N)NC(=O)[C@H](CCCNC(=N)N)NC(=O)[C@H](Cc1c[nH]c2ccccc12)NC(=O)[C@@H](NC(=O)[C@H](CCCNC(=N)N)NC(=O)[C@H](CCCNC(=N)N)NC(=O)[C@@H](NC(=O)[C@H](CCCNC(=N)N)NC(=O)[C@H](CCCNC(=N)N)NC(=O)[C@@H](NC(=O)[C@H](Cc1c[nH]c2ccccc12)NC(=O)[C@H](CCCNC(=N)N)NC(=O)[C@@H](N)CCCNC(=N)N)C(C)C)C(C)C)C(C)C)C(C)C)C(C)C)C(C)C)C(C)C)C(=O)N[C@@H](CCCNC(=N)N)C(=O)N[C@@H](CCCNC(=N)N)C(N)=O [SEQ ID NO: 1] (H-RRWVRRVRRVWRRVVRVVRRWVRR-NH2)
[11]
  reduction of mature biofilm on stainless steel rods: under the limit of detection after 30 minutes
[12]
  precipitation during broth dilution testing: slight precipitation
P. aeruginosa biofilm
  effect on biofilm, absorbance at 550 nm: profound effect on the biofilm
P. aeruginosa
  bacterial load in the kidney: decreased significantly
[13]
  MIC50: 2 µg/mL (≈ 0.588 µM)
  MIC90: 4 µg/mL (≈ 1.18 µM)
S. aureus biofilm
  effect on biofilm, absorbance at 550 nm: profound effect on the biofilm; also recorded: able to disrupt the biofilm at a lower concentration than for P. aeruginosa
[10]; Acinetobacter meropenem-resistant, n=68
  MIC50: 4 µg/mL (≈ 1.18 µM)
